# PubChem BioAssay AID1259424, University of Nebraska Medical Center | 2018
# Screen: 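Find knockdowns that reproduce the expression shifts seen after KSR1 loss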 (primary screen)
# Cells: human HCT116 colon cancer cells
# Knock-down reagent: siRNA pool against human genes, 50 nM
# Measurement: 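Six signature mRNAs by branched-DNA multiplex assay, scaled to two housekeeping genes and non-targeting median, log2; matched to mean KSR1 knockdown profile by Pearson correlation and euclidean distance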
# Reading the numbers: mean correlation with KSR1 profile and KSR1 correlation: higher = expression change more like KSR1 knockdown; mean distance from KSR1 profile: higher = expression change less like KSR1 knockdown
# In all, the deposit lists about 14,000 reagents; this is a random part of them. 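Higher correlation or smaller distance means closer resemblance to KSR1 loss; control wells, including KSR1 knockdowns, recur on many plates.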 No sequences are given here. The record does not give: the time to read-out.
gene knocked down,mean correlation with KSR1 profile,mean distance from KSR1 profile,"KSR1 correlation, replicate 1","KSR1 correlation, replicate 2","KSR1 correlation, replicate 3"
PPP3R1,-0.14,3.72,-0.168,-0.28,-0.27
BPY2,-0.137,1.68,-0.0775,0.0345,-0.0878
MSI1,-0.275,3.44,-0.219,-0.402,-0.297
RAB4B,0.391,1.56,0.154,0.319,0.325
KLHDC10,0.389,1.33,0.398,0.269,0.308
SQOR,-0.194,1.46,-0.626,0.0674,0.164
RAB1B,-0.0941,3.42,-0.11,-0.0967,-0.225
KSR2,0.0264,2.12,-0.0286,0.263,0.0502
PODXL2,-0.92,2.27,-0.713,-0.887,-0.932
KATNA1,0.0596,2.37,0.00653,0.0737,0.178
PWWP3A,0.479,1.79,0.402,0.405,0.14
SCG3,-0.0493,2.37,-0.214,0.00421,-0.0848
XPC,-0.531,3.55,-0.564,-0.539,-0.491
MUC5AC,0.0746,1.16,0.323,0.254,-0.0793
NXF5,-0.209,1.57,-0.42,-0.118,-0.203
RPS6KB2,-0.0931,2.79,0.331,-0.18,-0.567
DOCK5,0.0489,1.87,-0.0611,0.0444,-0.0156
EPS15,0.421,1.51,0.61,0.422,0.275
FRAT2,0.168,1.38,0.141,-0.0904,0.0548
ZNF33B,0.342,1.42,0.414,0.174,0.462
KCNH4,-0.162,3.58,-0.0357,-0.0474,-0.373
KRTAP1-1,0.484,2.28,0.314,0.466,0.403

Next part; the last 6 above are carried over.
gene knocked down,mean correlation with KSR1 profile,mean distance from KSR1 profile,"KSR1 correlation, replicate 1","KSR1 correlation, replicate 2","KSR1 correlation, replicate 3"
DOCK5,0.0489,1.87,-0.0611,0.0444,-0.0156
EPS15,0.421,1.51,0.61,0.422,0.275
FRAT2,0.168,1.38,0.141,-0.0904,0.0548
ZNF33B,0.342,1.42,0.414,0.174,0.462
KCNH4,-0.162,3.58,-0.0357,-0.0474,-0.373
KRTAP1-1,0.484,2.28,0.314,0.466,0.403
CCDC7,0.379,2.29,0.253,0.598,0.166
KIF4A,-0.335,1.58,-0.433,-0.222,-0.271
MITF,-0.54,3.31,0.0228,-0.581,-0.605
CRLF2,-0.344,2,-0.61,-0.257,-0.113
TPPP,-0.564,1.77,-0.436,-0.473,-0.654
UNC79,-0.302,4.52,-0.234,-0.734,-0.0106
TAX1BP3,0.471,2.97,0.561,0.296,0.163
FMNL1,-0.467,3.75,-0.526,-0.582,-0.461
ACBD4,-0.0484,1.78,0.209,0.0535,-0.201
PHKA1,0.611,1.69,0.58,0.676,0.42
INAVA,-0.85,3.65,-0.903,-0.899,-0.934
ESR2,-0.111,2.31,0.0604,0.0153,-0.549
U2AF1,-0.448,3.93,-0.442,-0.335,-0.568
NUCLEOLIN,-0.728,2.5,-0.592,-0.675,-0.612
HSD17B7,0.14,1.89,0.281,-0.0981,0.114
PTPDC1,-0.421,1.9,-0.399,-0.665,-0.248
SPRR2A,0.368,0.851,0.501,0.0867,0.392
MTHFD2,-0.056,1.69,-0.027,-0.156,0.0597
LYZL1,0.501,1.99,0.424,0.52,0.189
WAC,-0.684,6.46,-0.554,-0.896,-0.938
SUOX,-0.221,2.95,-0.438,-0.211,-0.144
C5orf15,-0.281,3.37,-0.27,-0.288,-0.0161
THSD1,-0.23,2.67,-0.178,-0.251,-0.143
CA9,-0.398,3.23,-0.454,-0.192,-0.648
CLSTN2,-0.347,2.02,-0.505,-0.159,0.18
PAPOLG,-0.0402,1.57,-0.395,-0.131,0.147
RRAS2,-0.0318,1.94,-0.283,0.0242,0.127
CHCHD5,0.768,1.96,0.703,0.662,0.863
